# Measured values published in PubChem BioAssay AID504834 (National Center for Advancing Translational Sciences (NCATS), 2011).
# Out of some 320,000 compounds screened, about 22,000 (6.9%) were called active. This list was built around the results that the source calls inconclusive (neither active nor inactive); the mix of calls is not that of the screen. Calls come from the whole dose curve; as a rule, active = well fitted inhibition curve with a large enough effect; inconclusive = small, poorly fitted or top-dose-only effect, or another doubt; inactive = no such curve, though single readings can be large or run the other way. A potency beside an inconclusive call is a rough fit, not a confirmed value.
# Assay: Primary qHTS for delayed death inhibitors of the malarial parasite plastid, 96 hour incubation
# Details: P. falciparum luciferase reporter growth; series mostly up to 28.7 µM; activity change, negative = inhibition: at the top concentration
# Procedure, shortened: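 Erythrocytes infected with luciferase-expressing P. falciparum were dispensed at 2% hematocrit and 0.05% parasitemia (final), then incubated with compounds 96 hours at 37 C in 5% CO2. Luminescence after detection reagent addition reported growth.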
# % is set by controls: 0 for no effect and ±100 for the full control effect; potency is the fitted concentration of half-maximal effect.
SMILES,Potency,"activity change, negative = inhibition"
O=C(c1cccc(C(F)(F)F)c1)N1CCCC1,"inconclusive: 11.7 µM [inhibitor, single point]",
Cn1c(=O)c(=O)n(C)c2cc(S(=O)(=O)N3CCCCC3)ccc21,"inconclusive: 18.5 µM [inhibitor, partial curve, poor fit]",
Clc1cccc(CSc2nnc(-c3c[nH]c4ccccc34)o2)c1,,inactive: 36.1%
CCCCC(CC)C(=O)NCCc1ccc(S(N)(=O)=O)cc1 (stereo not given),"inconclusive: 2.94 µM [inhibitor, full curve]",
O=C(C1CCCCC1)N1CCCn2c1nc1ccccc12,"inconclusive: 2.08 µM [inhibitor, partial curve]",
Cc1ccc(C2Nc3ccc4ccccc4c3C3=C2C(=O)CC(C)(C)C3)o1 (stereo not given),"inconclusive: 18.5 µM [inhibitor, single point]",
O=S(=O)(c1ccccc1)N1N=C(c2ccccc2)CC1c1ccccc1 (stereo not given),"inconclusive: 1.31 µM [inhibitor, partial curve, poor fit]",
CSc1ccc(S(=O)(=O)NCC(=O)OCC(=O)N(C)CC(=O)Nc2ccccc2Cl)cc1[N+](=O)[O-],,inactive: 46.1%
CCCCC(=O)Nc1nnc(SCC(=O)NC2CCCC2)s1,"inconclusive: 13.1 µM [inhibitor, partial curve, poor fit]",
Cc1cc(SCC(=O)c2ccccc2)nc(C)n1,,inactive: 112%
O=C(CCC(=O)OCc1ccc([N+](=O)[O-])cc1)Nc1ccc(F)cc1,"inconclusive: 1.04 µM [inhibitor, full curve, poor fit]",
Cc1c(C(=O)N(CCO)Cc2ccccc2)oc2c(F)cccc12,"inconclusive: 18.5 µM [inhibitor, single point]",
O=C(Cc1cccs1)NNC(=S)NCc1ccc(Cl)cc1,,inactive: 34.4%
CCC(C(=O)NCc1ccccc1OC)n1nc(C)n2c(cc3occc32)c1=O (stereo not given),"inconclusive: 2.33 µM [inhibitor, partial curve, poor fit]",
CCN(CC)C(=O)c1ccccc1NC(=O)CN1C(=O)c2ccccc2S1(=O)=O,"inconclusive: 10.4 µM [inhibitor, partial curve, poor fit]",
COc1ccc(S(=O)(=O)N2CCOCC2)cc1NC(=O)CCNC(=O)c1ccc(Cl)cc1,"inconclusive: 18.5 µM [inhibitor, single point]",
O=C(COc1ccc2ccccc2c1)Nc1ccc2c3c(cccc13)CC2,,inactive: -2.72%
CC(Sc1ccccn1)C(=O)Nc1ccccc1 (stereo not given),"inconclusive: 13.1 µM [inhibitor, partial curve, poor fit]",
CCC(CC)NC(=O)Nc1ccc(F)c(Cl)c1,,inactive: 19.6%
Cc1cccc(NS(=O)(=O)c2cc3c(cc2C)NC(=O)CO3)c1,,inactive: -9.52%
CCCc1ccc(O)c(N=Cc2cc(Br)cc(OCC)c2O)c1,"inconclusive: 18.5 µM [inhibitor, single point]",
CC(C)[C@H](NC(=O)[C@@H]1Cc2c([nH]c3ccccc23)C2c3ccccc3C(=O)N21)C(=O)NCC1CCCO1 (stereo not given in full),"inconclusive: 6.57 µM [inhibitor, partial curve, poor fit]",
Cc1cc(N/C=C/C(=O)c2ccccc2)ccc1Br,"inconclusive: 13.1 µM [inhibitor, single point]",
COc1ccc2nc(N(CCN(C)C)C(=O)c3ccc(C(=O)c4ccccc4)cc3)sc2c1,,inactive: 0.169%

SMILES,Potency,"activity change, negative = inhibition"
Cc1ccc(C(=O)N(c2ccccn2)C(C)c2ccco2)cc1 (stereo not given),,inactive: -0.659%
Cc1nn2c(SCC(=O)c3cccs3)cc(C(C)(C)C)nc2c1-c1ccccc1,"inconclusive: 4.15 µM [inhibitor, single point]",
CCN(CCn1cccn1)Cc1c(C(=O)N2CCCCCCC2)nc2ccc(Cl)cn12,"inconclusive: 8.28 µM [inhibitor, partial curve, poor fit]",
O=C(c1cc2ccccc2oc1=O)N(Cc1ccc2c(c1)OCO2)Cc1ccco1,,inactive: 4.31%
COC(c1ccccc1)c1nnc(CCC(=O)N2CCCCCCC2)o1 (stereo not given),"inconclusive: 10.4 µM [inhibitor, partial curve, poor fit]",
O=C(CC(=O)N/N=C/c1c(Cl)cccc1Cl)NCc1cccnc1,"inconclusive: 4.15 µM [inhibitor, partial curve]",
COc1ccccc1NC(=O)C(C)N1C(=O)c2ccccc2C1=O (stereo not given),,inactive: -2.16%
N#C/C(=C\c1ccc2c(c1)OCCO2)C(=O)Nc1ccc(C(=O)O)cc1,,inactive: 47%
Cc1n[nH]c(C)c1CCc1nc2c3ccccc3nc(SCC(N)=O)n2n1,"inconclusive: 0.0185 µM [inhibitor, full curve, poor fit]",
O=C(NCC1OCCCN1S(=O)(=O)c1cc(F)ccc1F)C(=O)NC1CCCC1 (stereo not given),,inactive: 0%
Nc1cc(Oc2ccc(Cl)cc2Cl)nc(N)n1,"inconclusive: 18.5 µM [inhibitor, single point]",
COc1ccc(NC(=O)C2CCCN(S(=O)(=O)c3cccc4cccnc34)C2)c(OC)c1 (stereo not given),"inconclusive: 14.7 µM [inhibitor, partial curve, poor fit]",
COc1ccc(OC)c(C(=O)COC(=O)c2cc(C)oc2C)c1,,inactive: -3.53%
Cc1ccc(S(=O)(=O)N2CCN(C(=O)CCC(=O)NCc3cccc(C(F)(F)F)c3)CC2)cc1,,inactive: -16%
O=C(NCC(c1cccs1)N1CCOCC1)c1ccccc1NS(=O)(=O)c1ccc(Cl)c([N+](=O)[O-])c1 (stereo not given),active: 8.28 µM,
Oc1ccc2c3c1O[C@H]1[C@@H](O)CC[C@@]4(O)C(C2)N(CC2CCC2)CCC314 (stereo not given in full),active: 3.38 µM,
O=C(COc1coc(CN2CCN(c3ccccc3F)CC2)cc1=O)NC1CCCC1,"inconclusive: 18.5 µM [inhibitor, single point]",
CCN(C(=O)CSc1ccc(S(=O)(=O)N2CCOCC2)cn1)c1ccccc1,"inconclusive: 18.5 µM [inhibitor, single point]",
Cc1cc(=O)oc2cc(NC(=O)c3cccc(Br)c3)ccc12,"inconclusive: 4.65 µM [inhibitor, partial curve, poor fit]",
CCCCn1nc(NS(=O)(=O)c2cccc3nonc23)c2cc3cccc(C)c3nc21,"inconclusive: 8.28 µM [inhibitor, partial curve, poor fit]",
Cc1cc(N)c2cc(NC(=O)Nc3ccc4nc(C)cc(N)c4c3)ccc2n1,"inconclusive: 3.79 µM [inhibitor, full curve, poor fit]",
O=C(Nc1cccc(S(=O)(=O)NC2=NCCC2)c1)c1ccc(=O)[nH]c1,,inactive: -18.1%
COCC(=O)Nc1cccc(Br)c1,"inconclusive: 10.4 µM [inhibitor, single point]",
COc1ccc(/C=C/C(=O)Nc2cccc(S(=O)(=O)N3CCOCC3)c2)cc1OC,"inconclusive: 10.4 µM [inhibitor, single point]",

# One compound at a time, as listed above.
# Nc1cc(Oc2ccc(Cl)cc2Cl)nc(N)n1 as listed: Potency: inconclusive: 18.5 µM [inhibitor, single point]
# O=C(COc1coc(CN2CCN(c3ccccc3F)CC2)cc1=O)NC1CCCC1 as listed: Potency: inconclusive: 18.5 µM [inhibitor, single point]
# COc1ccc2nc(N(CCN(C)C)C(=O)c3ccc(C(=O)c4ccccc4)cc3)sc2c1 as listed: activity change, negative = inhibition: inactive: 0.169%

# More results.

SMILES,Potency,"activity change, negative = inhibition"
O=C(CN1CCN(c2ccccc2)CC1)Nc1cccc([N+](=O)[O-])c1,,inactive: 25.4%
C#CCOC(=O)C1C2C=CC(C2)C1C(=O)O (stereo not given),,inactive: 10.2%
Cc1cccc(C)c1NC(=O)Cn1c(=O)n(CCC(=O)NCc2ccco2)c(=O)c2sccc21,"inconclusive: 0.0026 µM [inhibitor, full curve, poor fit]",
Clc1ccc(/C=N\Nc2ccccc2)cc1,"inconclusive: 18.5 µM [inhibitor, single point]",
O=C(CN1CCN(S(=O)(=O)c2cccc(Cl)c2)CC1)NCC1(N2CCOCC2)CCCCC1,"inconclusive: 14.7 µM [inhibitor, partial curve, poor fit]",
O=C(CSc1nc2ccccc2[nH]1)Nc1nc(-c2cccc(Br)c2)cs1,"inconclusive: 18.5 µM [inhibitor, single point]",
CCOC(=O)c1cc(C(=O)OCC)c(=O)[nH]c1SCc1ccccc1,,inactive: 38.1%
CC(=O)NCc1ccc(C(=O)CCl)cc1,,inactive: -19.6%
Cc1ccccc1-n1c(=O)cc(NCC2CCCO2)[nH]c1=O (stereo not given),active: 6.57 µM,
CCc1ccccc1NC1=NCC(=O)N1Cc1ccccc1,"inconclusive: 2.33 µM [inhibitor, full curve]",
COc1cc2cnc(-c3ccccc3)c(C(=O)c3ccc(F)cc3)c2cc1OC,"inconclusive: 14.7 µM [inhibitor, partial curve]",
O=C(CCCOc1ccccc1)Nc1cccc(S(=O)(=O)N2CCCCCC2)c1,"inconclusive: 14.7 µM [inhibitor, single point]",
c1ccc(-n2cnc3ccccc32)nc1,,inactive: -8.59%
COC(=O)c1ccccc1NC(=O)C1=CC(c2cccs2)=NS(=O)(=O)N1C,,inactive: 37.8%
C/C(=N\NC(=O)c1nnn(-c2nonc2N)c1CN1CCOCC1)c1ccc(CC(C)C)cc1,,inactive: 17.4%
CC(=O)c1c(C)[nH]c(C(=O)OCC(=O)NCc2ccc(Cl)cc2)c1C,"inconclusive: 10.4 µM [inhibitor, single point]",
Cc1ccccc1Nc1nnc(SCC(=O)NC(=O)NCc2ccco2)s1,"inconclusive: 11.7 µM [inhibitor, partial curve, poor fit]",
Cc1ccc(C(c2nnnn2CC2CCCO2)N2CCN(Cc3ccccc3)CC2)cc1 (stereo not given),"inconclusive: 3.29 µM [inhibitor, single point]",
O=C(CN1C(=O)CSc2ccc(S(=O)(=O)N3CCOCC3)cc21)NCc1cccnc1,,inactive: -6.97%
CC(c1ccco1)N(C(=O)c1ccccc1NS(=O)(=O)c1ccc(Cl)c([N+](=O)[O-])c1)c1ccccn1 (stereo not given),"inconclusive: 0.037 µM [inhibitor, full curve]",
CC(CCc1ccccc1)NC(=O)CSc1ccccc1 (stereo not given),active: 13.1 µM,
Cn1nccc1C(=O)N1CCN(C23CC4CC(CC(C4)C2)C3)CC1,"inconclusive: 18.5 µM [inhibitor, single point]",
